Measured values taken from patent US20100183584A1, “CONFORMATION AND ACTIVITY OF GBETA5 COMPLEXES” (University Of Miami, priority 2007, published 2010).

Columns and labels:
[1] = biological target: purified recombinant Gβ1γ2 complex (baculovirus-expressed); assay: GST pull-down of purified complex, western blot
in vitro translated Gαq [2] = assay: GST pull-down of in vitro translated 35S-labelled protein, autoradiography
in vitro translated Gαi [3] = assay: as above
[4] = biological target: purified recombinant Gβ1γ2 complex (baculovirus-expressed); assay: GST pull-down of purified baculovirus-expressed Gβ1γ2, western blot with anti-Gβ1
in vitro translated Gαq [5] = assay: GST pull-down, autoradiography
in vitro translated Gαi [6] = assay: GST pull-down, autoradiography

- binding [1]: binds
- binding (in vitro translated Gαq [2]): no binding
- binding (in vitro translated Gαi [3]): no binding
- binding [4]: binds
- binding (in vitro translated Gαq [5]): no binding
- binding (in vitro translated Gαi [6]): no binding
B1: GST-R7DEP (GST fusion of amino acids 34-124 of bovine RGS7) (protein, UniProt O46470 34-124, looked up, not shown: a dimerising Fc or GST)
chain: MQDEKNGIPIRTVKSFLSKIPSVFSGSDIVQWLIKNLTIEDPVEALHLGTLMAAHGYFFPISDHVLTLKDDGTFYRFQTPYFWPSNCWEPE

No constants are given. Whether binding was seen depends on the method and setting. For part of these data: Binding seen in cells or lysates may run through a third protein. For part of these data: Binding can be weak; no strength is given. Where a sequence is shown, tags or fusion partners need not be part of it.
